# Results as given in PubChem BioAssay AID2680 (National Center for Advancing Translational Sciences (NCATS), 2010).
# Sequences of proteins named here, by UniProt entry; tags and fusion partners are left off. A change or cut given only in a name is not applied to a line headed by its entry.
# UniProt P46154: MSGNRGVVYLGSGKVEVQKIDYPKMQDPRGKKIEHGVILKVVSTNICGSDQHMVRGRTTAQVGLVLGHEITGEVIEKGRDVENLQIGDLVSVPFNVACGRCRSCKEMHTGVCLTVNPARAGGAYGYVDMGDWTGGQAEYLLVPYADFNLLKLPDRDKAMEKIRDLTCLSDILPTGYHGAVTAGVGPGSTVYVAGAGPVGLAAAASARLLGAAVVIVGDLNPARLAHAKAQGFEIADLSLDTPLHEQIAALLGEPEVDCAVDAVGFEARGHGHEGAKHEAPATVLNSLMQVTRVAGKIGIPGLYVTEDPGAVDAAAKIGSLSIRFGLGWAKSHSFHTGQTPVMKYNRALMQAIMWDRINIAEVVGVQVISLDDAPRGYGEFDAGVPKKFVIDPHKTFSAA
# Inconclusive means that the source gave no clear call. Such entries were picked first, then a sample of the others. Potencies beside an inconclusive call are fits to weak or partial responses and may not hold up. Active and inactive are the calls of the source. Calls follow the shape of the dose curve; as a rule, active = well fitted inhibition curve with a large enough effect; inconclusive = small, poorly fitted or top-dose-only effect; inactive = no such curve, though single readings can be large or run the other way.
# Target: Glutathione-independent formaldehyde dehydrogenase (Pseudomonas putida) (UniProt P46154)
# Experiment: Counterscreen for JMJD2E Inhibitors: qHTS Assay for Inhibitors of Formaldehyde Dehydrogenase (FDH)
# Settings: FDH enzyme assay, NADH fluorescence kinetic; activity, negative = inhibition: at 56.7 µM (top of the series)
# Experimental: This assay is a counterscreen for a related assay for inhibitors of JMJD2E. See AID 2147 for details. The JMJD2E assay utilized an FDH-coupled protocol. To screen for false positive results in the primary assay due to inhibition of the formaldehyde dehydrogenase coupled enzyme, an FDH-only assay was run using FDH as the enzyme (0.000025 U/uL final concentration) and 10 uM formaldehyde and 0.25 mM NAD+ as the substrate, and following the same fluidic protocol as described in AID 2147 for the coupled HTS assay. Actives in this assay are likely false positives of the primary HTS.
# Assay is initiated by dispensing 3 uL of enzyme solution (4/3x final concentration) into a 1,536-well assay plate using a nanoliter solenoid-based dispenser (Beckman-Coulter, Fullerton, CA). After pintool transfer of compound solution, the assay plate is incubated at room temperature for 10 minutes, followed by a 1 uL addition of 4x substrate solution to initiate the reaction (final assay volume of 4 uL). The plate is then manually transferred into the ViewLux reader for kinetic measurements.
Structure (SMILES),Potency,"activity, negative = inhibition"
COc1ccc(Cl)cc1CSc1ncn[nH]1,active: 316 nM,
Oc1ccc(CNc2ccc(C(F)(F)F)cc2Cl)c2cccnc12,,inactive: -9.09%
Oc1ccc(CCc2c(F)cccc2F)c2cccnc12,,inactive: 0%
CCOC(=O)C1CCN(Cc2ccc(O)c3ncccc23)CC1,,inconclusive: -51.2% [inhibitor]
Oc1ccc(NCc2ccccc2OCc2ccccc2F)cc1,"inconclusive: 14100 nM [inhibitor, partial curve, poor fit]",
Oc1cc(NCCc2cccnc2)cc2cccnc12,,inactive: -27.3%
Oc1cc(NCc2ccc(F)cc2)cc2cccnc12,,inactive: -36.4%
Cc1ccc(C)c(S(=O)(=O)N2CCN(Cc3ccc(O)c4ncccc34)CC2)c1,,inconclusive: -30.2% [inhibitor]
Cc1ccc(N2C(=O)CC(Sc3ncn[nH]3)C2=O)cc1C (stereo not drawn),active: 224 nM,
CC1=NN(c2nc3ccccc3[nH]2)C(=O)C1Cc1ccccc1 (stereo not drawn),"inconclusive: 16200 nM [inhibitor, full curve]",
COc1ccc(NC(=O)CC2Sc3ncnn3C2=O)cc1 (stereo not drawn),active: 282 nM,
Cc1ccnc(NC(c2cccnc2)c2ccc3cccnc3c2O)c1 (stereo not drawn),"inconclusive: 31.6 nM [inhibitor, full curve, poor fit]",
Oc1cccc2cc(N3CCCC3)cnc12,,inactive: -9.09%

# Exported with tabs: entries from further up.
Structure (SMILES)	Potency	activity, negative = inhibition
Oc1cc(NCCc2cccnc2)cc2cccnc12		inactive: -27.3%
Oc1cc(NCc2ccc(F)cc2)cc2cccnc12		inactive: -36.4%
